Some of the results follow. Many values rest on one well or one pass, so single values are uncertain.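 Cells were imaged in 1,536-well plates, and nuclei stained with an antibody against cleaved PARP were counted against all DNA-stained nuclei to give the apoptosis fraction. Screening doses were chosen to leave most cells alive, and resting and induced cleaved-PARP levels differ strongly between cell lines.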
Tested on: UACC257
Test: cleaved PARP positive nuclei fraction relative to DMSO control; melanoma cells; higher = more apoptosis
Conditions: library dose: low library concentration; 72 h

Row | SMILES | cleaved PARP positive nuclei fraction
1 | CC1(C)CCC(c2ccc(Cl)cc2)=C(CN2CCN(c3ccc(C(=O)NS(=O)(=O)c4ccc(N[C@H](CCN5CCOCC5)CSc5ccccc5)c(S(=O)(=O)C(F)(F)F)c4)cc3)CC2)C1 + Cc1cc([N+](=O)[O-])ccc1NS(=O)(=O)c1cc(Cl)ccc1Cl [FH535] (first compound 0.4 µM, partner dose 1 µM) | 161%
2 | NC1(c2ccc(-c3nc4ccn5c(=O)[nH]nc5c4cc3-c3ccccc3)cc2)CCC1 + CC(C)(C)c1cnc(CSc2cnc(NC(=O)C3CCNCC3)s2)o1 [SNS-032] (first compound 0.4 µM, partner dose 0.01 µM) | 68.1%
3 | CN(c1ncccc1CNc1nc(Nc2ccc3c(c2)CC(=O)N3)ncc1C(F)(F)F)S(C)(=O)=O + O=C(O)C(=O)Nc1sc2c(c1C(=O)O)CCNC2 [TCS401] (first compound 0.08 µM, partner dose 1.66667 µM) | 870%
4 | NC1(c2ccc(-c3nc4ccn5c(=O)[nH]nc5c4cc3-c3ccccc3)cc2)CCC1 + COc1cc2c(Oc3ccc4[nH]c(C)cc4c3F)ncnc2cc1OCCCN1CCCC1 [cediranib] (first compound 0.4 µM, partner dose 0.4 µM) | 101%
5 | CC1(C)CCC(c2ccc(Cl)cc2)=C(CN2CCN(c3ccc(C(=O)NS(=O)(=O)c4ccc(N[C@H](CCN5CCOCC5)CSc5ccccc5)c(S(=O)(=O)C(F)(F)F)c4)cc3)CC2)C1 + C=CCn1c(=O)c2cnc(Nc3ccc(N4CCN(C)CC4)cc3)nc2n1-c1cccc(C(C)(C)O)n1 [MK1775] (first compound 0.4 µM, partner dose 0.02 µM) | 135%
6 | NC1(c2ccc(-c3nc4ccn5c(=O)[nH]nc5c4cc3-c3ccccc3)cc2)CCC1 + COc1ccc(-c2ccc3c(N4CCOCC4)nc(N4C[C@@H](C)O[C@@H](C)C4)nc3n2)cc1CO [KU0063794] (first compound 0.4 µM, partner dose 0.02 µM) | 321%
7 | CS(=O)(=O)c1ccc(C(=O)Nc2ccc(Cl)c(-c3ccccn3)c2)c(Cl)c1 [vismodegib] + COC(=O)c1sccc1S(=O)(=O)Nc1ccc(Nc2ccccc2)cc1OC [GSK0660] (first compound 1 µM, partner dose 1 µM) | 121%
8 | NC(=O)c1ccc(N(C(N)=O)c2c(F)cccc2F)nc1-c1ccc(F)cc1F + O=C(CCCCCCC(=O)Nc1ccccc1)NO [vorinostat] (first compound 0.4 µM, partner dose 0.08 µM) | 46.6%
9 | Cn1sc(=O)n(Cc2ccccc2)c1=O + O=c1cc(-c2cccc3c2Sc2ccccc2S3)oc(N2CCOCC2)c1 [KU55933] (first compound 0.4 µM, partner dose 1 µM) | 165%
10 | CCCCCCCCc1ccc(CCC(N)(CO)CO)cc1 [fingolimod] + COc1cc2ncnc(Nc3ccc(Oc4ccccc4)cc3)c2cc1OC [SrcI1] (first compound 2 µM, partner dose 2 µM) | 36.7%
11 | NC1(c2ccc(-c3nc4ccn5c(=O)[nH]nc5c4cc3-c3ccccc3)cc2)CCC1 + Cc1ccc(NC(=O)c2cccc(N(C)C)c2)cc1NC(=O)c1ccc(O)cc1 [ZM336372] (first compound 0.4 µM, partner dose 2 µM) | 59.1%
12 | COc1ccc(C2=N[C@@H](c3ccc(Cl)cc3)[C@@H](c3ccc(Cl)cc3)N2C(=O)N2CCNC(=O)C2)c(OC(C)C)c1 [Nutlin-3] + C[C@@H]1CCN(C(=O)CC#N)C[C@@H]1N(C)c1ncnc2[nH]ccc12 [CP690550] (first compound 0.1 µM, partner dose 1 µM) | 80.3%
13 | CS(=O)(=O)c1ccc(C(=O)Nc2ccc(Cl)c(-c3ccccn3)c2)c(Cl)c1 [vismodegib] + CC(C)(C)c1cnc(CSc2cnc(NC(=O)C3CCNCC3)s2)o1 [SNS-032] (first compound 1 µM, partner dose 0.01 µM) | 325%
14 | NC1(c2ccc(-c3nc4ccn5c(=O)[nH]nc5c4cc3-c3ccccc3)cc2)CCC1 + Cn1cc(/C=C2\C(=O)Nc3cccnc32)c2ccccc21 [GW441756] (first compound 0.4 µM, partner dose 0.4 µM) | 594%
15 | Cn1cnc2c(F)c(Nc3ccc(Br)cc3Cl)c(C(=O)NOCCO)cc21 [selumetinib] + O=C(Nc1cccc(Cl)c1)Nc1ncc(CCNc2ncnc3ccsc23)s1 [SNS314] (first compound 0.015 µM, partner dose 0.0008 µM) | 96.5%

A second format for some results above:

| Row | SMILES | cleaved PARP positive nuclei fraction |
| --- | --- | --- |
| 4 | NC1(c2ccc(-c3nc4ccn5c(=O)[nH]nc5c4cc3-c3ccccc3)cc2)CCC1 + COc1cc2c(Oc3ccc4[nH]c(C)cc4c3F)ncnc2cc1OCCCN1CCCC1 [cediranib] (first compound 0.4 µM, partner dose 0.4 µM) | 101% |
| 6 | NC1(c2ccc(-c3nc4ccn5c(=O)[nH]nc5c4cc3-c3ccccc3)cc2)CCC1 + COc1ccc(-c2ccc3c(N4CCOCC4)nc(N4C[C@@H](C)O[C@@H](C)C4)nc3n2)cc1CO [KU0063794] (first compound 0.4 µM, partner dose 0.02 µM) | 321% |

Source: the supplement of paper PMC4604168 (melanoma cell lines)
